# Test results from the supplement of paper PMC11732987, “Enantioselective OTUD7B fragment discovery through chemoproteomics screening and high-throughput optimisation” (Communications Chemistry, 2025).
# Sequences of proteins named here, by UniProt entry; tags and fusion partners are left off. A change or cut given only in a name is not applied to a line headed by its entry. Residues count along the entry.
# UniProt Q7L5N7, 206-226: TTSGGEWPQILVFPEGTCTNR
# UniProt Q8IVT5: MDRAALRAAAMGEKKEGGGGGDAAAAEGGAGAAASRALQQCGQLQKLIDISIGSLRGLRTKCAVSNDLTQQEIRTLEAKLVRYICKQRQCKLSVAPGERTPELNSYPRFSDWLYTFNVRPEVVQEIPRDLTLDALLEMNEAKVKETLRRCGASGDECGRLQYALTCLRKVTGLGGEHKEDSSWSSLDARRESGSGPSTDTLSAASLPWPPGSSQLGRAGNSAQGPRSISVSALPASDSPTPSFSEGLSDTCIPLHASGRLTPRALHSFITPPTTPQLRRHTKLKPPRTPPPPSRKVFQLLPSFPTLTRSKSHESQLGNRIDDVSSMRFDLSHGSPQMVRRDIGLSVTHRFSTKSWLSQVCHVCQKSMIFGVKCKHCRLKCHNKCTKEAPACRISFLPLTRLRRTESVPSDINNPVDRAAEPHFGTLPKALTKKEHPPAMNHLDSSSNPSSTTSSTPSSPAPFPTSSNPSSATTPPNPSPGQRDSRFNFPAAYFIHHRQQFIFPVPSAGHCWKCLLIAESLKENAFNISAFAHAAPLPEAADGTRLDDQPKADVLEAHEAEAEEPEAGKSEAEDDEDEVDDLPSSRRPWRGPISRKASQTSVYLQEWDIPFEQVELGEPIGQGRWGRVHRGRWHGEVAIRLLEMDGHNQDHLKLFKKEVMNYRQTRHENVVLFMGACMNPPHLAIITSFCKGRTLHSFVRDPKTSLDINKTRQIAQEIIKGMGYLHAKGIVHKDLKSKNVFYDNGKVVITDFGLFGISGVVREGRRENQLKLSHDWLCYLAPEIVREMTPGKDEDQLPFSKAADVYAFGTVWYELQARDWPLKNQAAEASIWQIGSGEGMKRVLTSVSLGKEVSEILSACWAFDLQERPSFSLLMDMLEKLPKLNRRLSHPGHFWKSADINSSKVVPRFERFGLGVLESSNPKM
# UniProt Q9H6V9: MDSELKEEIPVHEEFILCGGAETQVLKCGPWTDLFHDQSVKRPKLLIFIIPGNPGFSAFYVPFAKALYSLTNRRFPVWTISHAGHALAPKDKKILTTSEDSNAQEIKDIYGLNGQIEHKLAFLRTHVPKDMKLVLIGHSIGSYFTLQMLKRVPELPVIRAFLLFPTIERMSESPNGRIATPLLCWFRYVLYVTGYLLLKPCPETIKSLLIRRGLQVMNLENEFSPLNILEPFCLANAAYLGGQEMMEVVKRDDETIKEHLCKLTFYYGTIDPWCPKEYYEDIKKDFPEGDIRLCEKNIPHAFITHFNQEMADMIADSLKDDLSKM
# UniProt Q92845: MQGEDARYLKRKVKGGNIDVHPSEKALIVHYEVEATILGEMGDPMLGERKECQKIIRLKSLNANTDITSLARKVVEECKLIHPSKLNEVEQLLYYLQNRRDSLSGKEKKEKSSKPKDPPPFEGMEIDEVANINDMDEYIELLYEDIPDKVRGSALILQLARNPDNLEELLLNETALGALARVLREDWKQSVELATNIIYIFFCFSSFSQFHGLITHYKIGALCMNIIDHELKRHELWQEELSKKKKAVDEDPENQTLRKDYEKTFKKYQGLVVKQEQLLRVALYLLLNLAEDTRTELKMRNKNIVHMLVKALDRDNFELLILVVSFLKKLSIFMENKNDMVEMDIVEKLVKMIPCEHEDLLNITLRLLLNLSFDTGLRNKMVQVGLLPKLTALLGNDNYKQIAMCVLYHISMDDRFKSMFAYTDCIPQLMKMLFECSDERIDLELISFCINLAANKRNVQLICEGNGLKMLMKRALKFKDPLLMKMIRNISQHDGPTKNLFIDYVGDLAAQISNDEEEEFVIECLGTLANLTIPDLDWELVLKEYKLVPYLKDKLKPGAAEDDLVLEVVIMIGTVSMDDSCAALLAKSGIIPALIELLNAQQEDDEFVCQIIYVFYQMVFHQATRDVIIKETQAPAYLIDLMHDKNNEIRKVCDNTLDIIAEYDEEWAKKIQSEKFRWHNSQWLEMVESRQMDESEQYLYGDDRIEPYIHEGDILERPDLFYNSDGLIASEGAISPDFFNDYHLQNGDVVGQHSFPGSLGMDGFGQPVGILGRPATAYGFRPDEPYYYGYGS
# UniProt Q9NS86: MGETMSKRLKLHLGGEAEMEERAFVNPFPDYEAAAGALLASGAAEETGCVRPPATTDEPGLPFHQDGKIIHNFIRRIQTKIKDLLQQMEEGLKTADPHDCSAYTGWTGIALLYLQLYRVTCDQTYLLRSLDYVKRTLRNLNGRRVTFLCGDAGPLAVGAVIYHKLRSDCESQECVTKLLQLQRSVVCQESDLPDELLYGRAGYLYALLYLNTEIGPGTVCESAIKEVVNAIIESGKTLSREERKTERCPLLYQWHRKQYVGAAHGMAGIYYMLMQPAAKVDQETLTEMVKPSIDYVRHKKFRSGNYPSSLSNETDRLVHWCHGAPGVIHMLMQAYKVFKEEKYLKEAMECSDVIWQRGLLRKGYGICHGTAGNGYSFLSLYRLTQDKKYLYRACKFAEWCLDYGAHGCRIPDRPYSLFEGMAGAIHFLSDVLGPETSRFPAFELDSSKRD
# UniProt P01130: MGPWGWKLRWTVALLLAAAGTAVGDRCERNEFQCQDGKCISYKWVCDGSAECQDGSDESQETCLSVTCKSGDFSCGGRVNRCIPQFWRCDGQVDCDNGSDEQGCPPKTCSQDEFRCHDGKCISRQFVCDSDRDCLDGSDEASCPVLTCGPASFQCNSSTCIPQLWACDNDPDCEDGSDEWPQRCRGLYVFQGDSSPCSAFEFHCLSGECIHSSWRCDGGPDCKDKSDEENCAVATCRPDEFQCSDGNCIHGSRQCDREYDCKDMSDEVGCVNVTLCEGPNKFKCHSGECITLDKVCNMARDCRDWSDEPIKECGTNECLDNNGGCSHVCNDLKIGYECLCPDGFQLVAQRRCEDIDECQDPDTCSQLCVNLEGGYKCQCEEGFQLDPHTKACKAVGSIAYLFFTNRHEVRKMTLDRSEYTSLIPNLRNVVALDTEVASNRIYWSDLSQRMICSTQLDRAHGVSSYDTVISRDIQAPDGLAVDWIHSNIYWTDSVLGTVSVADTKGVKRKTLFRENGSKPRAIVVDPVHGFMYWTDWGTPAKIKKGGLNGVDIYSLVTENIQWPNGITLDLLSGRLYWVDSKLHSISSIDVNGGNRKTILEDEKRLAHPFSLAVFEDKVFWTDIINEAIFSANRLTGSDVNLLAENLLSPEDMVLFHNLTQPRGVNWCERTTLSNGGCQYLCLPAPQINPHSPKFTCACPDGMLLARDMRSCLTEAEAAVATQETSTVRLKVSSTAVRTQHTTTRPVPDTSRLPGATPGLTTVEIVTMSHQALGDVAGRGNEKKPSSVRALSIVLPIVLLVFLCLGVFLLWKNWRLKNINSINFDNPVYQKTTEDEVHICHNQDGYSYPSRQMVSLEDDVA
# UniProt Q53H82: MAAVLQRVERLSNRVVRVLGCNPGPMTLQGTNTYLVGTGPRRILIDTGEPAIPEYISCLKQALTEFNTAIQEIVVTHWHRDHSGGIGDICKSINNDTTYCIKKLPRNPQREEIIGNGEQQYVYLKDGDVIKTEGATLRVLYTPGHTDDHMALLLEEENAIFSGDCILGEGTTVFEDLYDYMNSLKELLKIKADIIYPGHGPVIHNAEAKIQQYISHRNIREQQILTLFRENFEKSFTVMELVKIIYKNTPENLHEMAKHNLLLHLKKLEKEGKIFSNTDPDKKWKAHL
# UniProt Q9UN81: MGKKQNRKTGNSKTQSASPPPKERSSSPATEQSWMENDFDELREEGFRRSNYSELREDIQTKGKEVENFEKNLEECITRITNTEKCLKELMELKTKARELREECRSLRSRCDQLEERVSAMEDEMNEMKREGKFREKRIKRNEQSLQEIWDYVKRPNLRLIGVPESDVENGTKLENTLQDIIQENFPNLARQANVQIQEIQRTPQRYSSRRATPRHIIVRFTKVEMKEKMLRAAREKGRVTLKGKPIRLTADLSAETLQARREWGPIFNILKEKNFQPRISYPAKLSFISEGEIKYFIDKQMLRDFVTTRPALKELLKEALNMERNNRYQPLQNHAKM
# UniProt Q96PV6: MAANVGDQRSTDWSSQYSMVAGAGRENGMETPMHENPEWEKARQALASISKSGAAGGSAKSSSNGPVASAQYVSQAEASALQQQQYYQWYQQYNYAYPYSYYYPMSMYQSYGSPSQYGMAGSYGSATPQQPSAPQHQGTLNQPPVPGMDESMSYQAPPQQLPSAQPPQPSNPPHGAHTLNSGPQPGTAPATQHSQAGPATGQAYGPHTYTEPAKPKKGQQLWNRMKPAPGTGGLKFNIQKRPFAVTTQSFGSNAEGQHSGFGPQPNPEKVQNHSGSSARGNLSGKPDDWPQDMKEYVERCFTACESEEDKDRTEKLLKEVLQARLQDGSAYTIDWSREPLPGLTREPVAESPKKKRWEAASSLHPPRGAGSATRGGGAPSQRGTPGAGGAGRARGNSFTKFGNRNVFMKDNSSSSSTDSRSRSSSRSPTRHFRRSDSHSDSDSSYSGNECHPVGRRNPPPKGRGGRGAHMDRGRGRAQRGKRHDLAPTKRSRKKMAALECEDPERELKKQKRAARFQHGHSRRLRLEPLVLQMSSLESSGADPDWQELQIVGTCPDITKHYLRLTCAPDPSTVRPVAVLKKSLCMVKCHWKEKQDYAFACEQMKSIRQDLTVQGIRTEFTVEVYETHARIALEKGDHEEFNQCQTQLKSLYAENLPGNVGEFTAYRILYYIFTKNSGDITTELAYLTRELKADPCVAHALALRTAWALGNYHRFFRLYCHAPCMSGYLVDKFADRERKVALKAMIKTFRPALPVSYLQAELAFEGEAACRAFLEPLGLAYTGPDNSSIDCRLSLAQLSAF
# UniProt P53667: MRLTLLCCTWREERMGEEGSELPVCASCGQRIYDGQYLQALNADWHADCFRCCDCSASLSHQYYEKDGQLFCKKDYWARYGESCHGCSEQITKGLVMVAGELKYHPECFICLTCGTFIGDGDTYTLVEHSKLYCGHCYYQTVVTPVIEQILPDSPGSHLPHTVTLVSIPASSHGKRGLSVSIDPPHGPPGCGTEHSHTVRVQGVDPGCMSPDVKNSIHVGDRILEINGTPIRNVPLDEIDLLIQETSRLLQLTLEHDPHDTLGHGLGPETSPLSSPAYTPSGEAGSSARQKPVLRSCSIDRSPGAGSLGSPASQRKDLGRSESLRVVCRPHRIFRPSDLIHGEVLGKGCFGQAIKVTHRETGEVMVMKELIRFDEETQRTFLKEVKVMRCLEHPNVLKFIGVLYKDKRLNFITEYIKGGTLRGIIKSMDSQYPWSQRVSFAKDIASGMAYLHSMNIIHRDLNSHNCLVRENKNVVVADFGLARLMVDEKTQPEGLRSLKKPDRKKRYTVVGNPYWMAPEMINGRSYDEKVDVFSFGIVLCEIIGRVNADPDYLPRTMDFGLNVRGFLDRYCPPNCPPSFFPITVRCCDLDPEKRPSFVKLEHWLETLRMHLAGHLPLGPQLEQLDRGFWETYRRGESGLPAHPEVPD
# UniProt P48059, whole entry, looked up: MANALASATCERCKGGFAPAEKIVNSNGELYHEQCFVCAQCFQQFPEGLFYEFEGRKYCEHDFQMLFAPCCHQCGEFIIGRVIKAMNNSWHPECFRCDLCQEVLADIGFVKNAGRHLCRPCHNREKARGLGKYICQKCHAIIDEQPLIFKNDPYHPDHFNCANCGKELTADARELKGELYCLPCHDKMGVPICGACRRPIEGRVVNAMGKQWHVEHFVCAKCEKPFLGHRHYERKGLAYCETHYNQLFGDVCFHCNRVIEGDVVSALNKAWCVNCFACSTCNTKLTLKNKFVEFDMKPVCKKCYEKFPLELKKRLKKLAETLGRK
# Some of the results follow. The data scatter; read single values as rough.
# Compound: ClCC(=O)N[C@H]1CCCc2ccccc12
# Assay: log2 mean competition ratio of IA-DTB cysteine labelling (DMSO/compound) (log2 ratio); higher = stronger cysteine engagement by compound
# Details: 50 µM; treatment time: 4 h; cell line lysate: HEK293T
# Method: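 IA-DTB competitive cysteine chemoproteomics in HEK293T RIPA lysate. Lysates were treated with compound 29 or 30 at 50 or 200 µM for 4 h, then IA-DTB (500 µM, 1 h), trypsin-digested, NeutrAvidin-enriched and analysed by diaPASEF. Competition ratio = intensity DMSO / intensity compound (n=4 treated, n=64 DMSO); binding: mean log2 CR ≥ 1 and p ≤ 0.05 plus QC filters. Target is the cysteine site.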
row,Target,log2 mean competition ratio
1,LPCAT2 C223 (UniProt Q7L5N7),0.204
2,KSR1 C41 (UniProt Q8IVT5),0.142
3,LRPPRC C863,0.516
4,LDAH C261 (UniProt Q9H6V9),-0.347
5,KIFAP3 C463 (UniProt Q92845),-0.0395
6,LARS1 C248,-0.106
7,LRBA C1228,-0.32
8,LARS1 C554,-0.099
9,LANCL2 C350 (UniProt Q9NS86),0.201
10,LRATD2 C208,0.502
11,"LARP1B C775, A0A3B3ISF0",-0.0392
12,LDLR C34 (UniProt P01130),-0.228
13,KIF5C C66,-0.132
14,KMT2D C414 (UniProt O14686),0.275
15,LACTB2 C100 (UniProt Q53H82),0.0468
16,L1RE1 C76 (UniProt Q9UN81),-0.0389
17,LRPPRC C927,-0.184
18,LENG8 C643 (UniProt Q96PV6),-0.304
19,LIMK1 C349 (UniProt P53667),0.0141
20,LIMS1 C222 (UniProt P48059),0.135

# Same assay, conditions: 200 µM; treatment time: 4 h; cell line lysate: HEK293T
row,Target,log2 mean competition ratio
1,LPCAT2 C223 (UniProt Q7L5N7),0.0291
2,KSR1 C41 (UniProt Q8IVT5),0.0301
3,LRPPRC C863,-0.0457
4,LDAH C261 (UniProt Q9H6V9),-0.0952
5,KIFAP3 C463 (UniProt Q92845),0.0442
6,LARS1 C248,-0.0412
7,LRBA C1228,-0.294
8,LARS1 C554,0.288
9,LANCL2 C350 (UniProt Q9NS86),-0.162
10,LRATD2 C208,-0.0821
11,"LARP1B C775, A0A3B3ISF0",-0.053
12,LDLR C34 (UniProt P01130),0.259
13,KIF5C C66,-0.00251
14,KMT2D C414 (UniProt O14686),-0.0809
15,LACTB2 C100 (UniProt Q53H82),0.193
16,L1RE1 C76 (UniProt Q9UN81),0.13
17,LRPPRC C927,0.0836
18,LENG8 C643 (UniProt Q96PV6),-0.149
19,LIMK1 C349 (UniProt P53667),-0.253
20,LIMS1 C222 (UniProt P48059),-0.509
